# Some of the results follow. Shown are side measurements of this screen, not its main read-out; they come without a call. Compounds called inactive in the main read-out are mostly missing here. Words in brackets tell the shape of the fitted curve; partial curves, single points and poor fits give uncertain potencies.
# Experiment: qHTS Assay for Lipid Storage Modulators in Drosophila S3 Cells;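 as to cell number change: cells counted by Cell Tracker Red CMTPX staining in the red channel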
# Details: BODIPY lipid droplet fluorescence, 18-24 h; for cell number change: measured here: cell count max response, cells fed with added oleic acid
# In short: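 Drosophila S3 cells loaded with oleic acid (400 uM, as added) and compounds at several concentrations; lipid droplets imaged by 488-nm laser-scanning cytometry, 500–530 nm intensity and object ratio to cell channel. Percent activity normalized to 20 uM Triacsin C.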
# [1] = measured here: lipid fluorescence (Fed channel) AC50, cells fed with added oleic acid
# [2] = measured here: cell number channel AC50, cells fed with added oleic acid
Compound,cell number change [%],AC50 [1],AC50 [2]
Cc1[nH]c2ccccc2c1/C=C/C(=O)c1ccncc1,8.32,"6.51 µM [falling, partial curve]",–
O=C(COC(=O)COc1cccc(C(F)(F)F)c1)NC1CCS(=O)(=O)C1 (centres undefined),-29.5,"6.51 µM [falling, full curve]",–
Cc1cc(C)c2nc(-c3ccccn3)cc(C(=O)NCCc3ccc(S(N)(=O)=O)cc3)c2c1,-27.2,"32.6 µM [falling, single point]",–
COc1ccc(C(=O)NCC(=O)Nc2ccc(F)cc2)cc1OC,3.53,"0.291 µM [rising, partial curve, poor fit]",–
COc1cc(/C=N/NS(=O)(=O)c2ccc(C)c([N+](=O)[O-])c2)cc([N+](=O)[O-])c1O,-4.69,"29.1 µM [rising, single point]",–
CCOc1ccc(C(=O)Nc2cccc(NC(=O)c3cccs3)c2)cc1[N+](=O)[O-],8.87,"1.03 µM [falling, single point]","0.731 µM [falling, single point]"
COc1ccc(OC)c(S(=O)(=O)N2CCC(C(=O)NCC3CCCO3)CC2)c1 (centres undefined),-113,"29.1 µM [falling, partial curve]","23.1 µM [falling, partial curve]"
CN(c1ccccc1)S(=O)(=O)c1ccc(Cl)c(C(=O)OCC(=O)NCc2ccco2)c1,-20.1,–,–
C=CCn1c(CCNC(=O)c2cccs2)nnc1SCC(=O)c1ccc(Br)cc1,71.7,"6.51 µM [rising, single point]","14.6 µM [rising, partial curve]"
O=C(N/N=C/c1cccc(O)c1)C(=O)N1CCCCCC1,38.9,–,"29.1 µM [rising, single point]"
COc1ccc(S(=O)(=O)N2CCCCC2)cc1NC(=O)CSc1nnc(C2CC2)n1C,-5.51,"0.164 µM [rising, full curve, poor fit]",–
O=S(=O)(N/N=C\c1c(F)cccc1Cl)c1ccc(Cl)cc1,-11,"23.1 µM [falling, partial curve]",–
COc1cc(NC(=O)c2ccc(Cl)cc2)c2ncccc2c1,-26.8,"23.1 µM [falling, partial curve]",–
Cc1sc2ncnc(NCC(c3ccccc3)N(C)C)c2c1C (centres undefined),-28.6,–,–
CCOC(=O)C(C)(C)Sc1nc2c(cnn2-c2ccc(C)cc2)c(=O)[nH]1,-34.9,"29.1 µM [falling, single point]","29.1 µM [falling, single point]"
CC(C)c1nnc(NC(=O)CCC(=O)N2CCN(Cc3ccc(F)cc3)CC2)s1,-7.67,–,–
CC1CCN(Cc2c(C(=O)N/N=C/c3cccc(Cl)c3)nnn2-c2nonc2N)CC1,33,–,"16.4 µM [rising, single point]"
COc1ccc2c(c1OC)C(=O)OC2Nc1nc(-c2cc3cc(Br)ccc3oc2=O)cs1 (centres undefined),7.76,"0.291 µM [rising, full curve]",–
COC(=O)C1=C(C)NC(C)=C(C(=O)OC)C1C(=O)OCC(=O)Nc1ccc(C(C)=O)cc1,–,"35.5 µM [rising, single point]",–
CC(C)C(=O)Nc1nnc(S(=O)(=O)N2CCCCCC2)s1,13.8,"29.1 µM [rising, single point]",–
COc1ccccc1N1CCN(C(=O)c2cc(-c3ccc(Br)cc3)on2)CC1,-0.575,–,–

# Another view of part of the listing above.
Compound	cell number change [%]	AC50 [1]	AC50 [2]
Cc1[nH]c2ccccc2c1/C=C/C(=O)c1ccncc1	8.32	6.51 µM [falling, partial curve]	–
COc1ccc(OC)c(S(=O)(=O)N2CCC(C(=O)NCC3CCCO3)CC2)c1 (centres undefined)	-113	29.1 µM [falling, partial curve]	23.1 µM [falling, partial curve]
CN(c1ccccc1)S(=O)(=O)c1ccc(Cl)c(C(=O)OCC(=O)NCc2ccco2)c1	-20.1	–	–

# Next part:

Compound,cell number change [%],AC50 [1],AC50 [2]
Cc1nonc1C1CCCN1C(=O)c1cc(COc2ccc(F)cc2F)on1 (centres undefined),19.8,"2.59 µM [rising, full curve, poor fit]",–
COc1ccc(Cl)cc1NC(=O)CN(C)C(=O)CCC(=O)c1cc(C)sc1C,–,–,"2.31 µM [rising, partial curve]"
NS(=O)(=O)c1cc(C2(O)NC(=O)c3ccccc32)ccc1Cl (centres undefined),-14.7,"2.31 µM [falling, partial curve, poor fit]",–
COc1ccc(NC(=O)CSc2nnc(-c3cc(C)[nH]n3)n2N)cc1,21,"29.1 µM [rising, single point]",–
Nc1cc(N)nc(SCCN2CCCCC2)n1,–,"0.0058 µM [falling, full curve, poor fit]",–
Cc1ccccc1OCCOC(=O)c1cc(S(=O)(=O)N2CCCCC2)ccc1N1CCOCC1,-34,"29.1 µM [falling, single point]","32.6 µM [falling, single point]"
CCOC(=O)CC(=O)CSc1nc2c(cc1C#N)CCCCC2,-0.814,"0.92 µM [rising, full curve, poor fit]",–
CN(Cc1cccc(F)c1)C(=O)c1ccc(S(=O)(=O)C(F)F)cc1,-12.8,–,–
O=C(Cn1cnc2c(cnn2-c2ccccc2Cl)c1=O)N1CCc2ccccc21,-20.5,"29.1 µM [falling, single point]",–
O=C(CCSc1ccccc1)NCCN1CCOCC1,4.86,"9.2 µM [rising, single point]",–
Cc1cc(C(=O)N/N=C/c2ccco2)n[nH]1,7.22,"0.326 µM [rising, single point]",–
O=C(CC1(C(F)(F)F)OCCO1)Nc1ccc2c(c1)OCO2,3.73,–,–
Cc1cc(C(=O)OCC(=O)NC2CC2)ccc1[N+](=O)[O-],-20.3,"3.66 µM [rising, full curve, poor fit]",–
O=C(CN1C(=O)c2ccccc2S1(=O)=O)Nc1ncccn1,5.85,"20.6 µM [falling, partial curve, poor fit]",–
O=C(COC(=O)C1C2CC3OC(=O)C1C3C2)Nc1ccccc1 (centres undefined),262,–,–
CC(C)(C)n1nc2c(c1NC(=O)Cc1cccc3ccccc13)CS(=O)(=O)C2,-41,"4.11 µM [falling, full curve]","14.6 µM [falling, partial curve, poor fit]"
CC(C)Sc1nc(-c2cccs2)nc2c1c(=O)n(C)c(=O)n2C,21.2,–,–
Cc1ccc(OCC(=O)N(C)CC(=O)Nc2ccccc2Cl)c([N+](=O)[O-])n1,-2,–,–
CCN(C(=O)COC(=O)C1CCN(S(=O)(=O)c2ccc3c(c2)OCCO3)CC1)C1CCCCC1,24.4,"29.1 µM [rising, single point]",–
Cc1cc(C)nc(Nc2cccc(C(F)(F)F)c2)n1,0.549,"5.8 µM [rising, full curve]",–
Cc1cc(C)cc(-n2c3nc4ccccc4nc3c3c(=O)n(Cc4ccco4)cnc32)c1,-93.6,–,"16.4 µM [falling, partial curve]"

# Reformatted with bars between the fields: two of the compounds above
Compound | cell number change [%] | AC50 [1] | AC50 [2]
COc1cc(/C=N/NS(=O)(=O)c2ccc(C)c([N+](=O)[O-])c2)cc([N+](=O)[O-])c1O | -4.69 | 29.1 µM [rising, single point] | –
COc1ccc(OC)c(S(=O)(=O)N2CCC(C(=O)NCC3CCCO3)CC2)c1 (centres undefined) | -113 | 29.1 µM [falling, partial curve] | 23.1 µM [falling, partial curve]

# (cont.)

Compound,cell number change [%],AC50 [1],AC50 [2]
CCOc1cc(/C=N/NC(=O)CSc2nncn2C)ccc1OC(=O)c1ccc(Cl)cc1,-63,"14.6 µM [falling, partial curve]","0.0092 µM [falling, full curve]"
CCOC(=O)c1[nH]c2c(c1-c1ccccc1)C(=O)CC(c1ccc(Cl)cc1)C2 (centres undefined),1.82,"0.366 µM [rising, single point]",–
CC(CO)Nc1nc(SCc2ccccc2)nc2sc3c(c12)CCC3 (centres undefined),–,"6.51 µM [rising, single point]","6.51 µM [rising, partial curve, poor fit]"
O=C(COC(=O)c1c[nH]c2ccccc12)Nc1cccc(F)c1,-4.02,"29.1 µM [rising, single point]",–
CC(=O)c1sc(-c2c(C)nc3sccn23)nc1C1CCCC1,6.84,–,–
CC(=O)Nc1ccc(SCC(=O)NC(=O)c2ccccc2Br)cc1,2.71,"20.6 µM [rising, single point]",–
O=C(COC(=O)c1ccc(Br)o1)NCC1CCCO1 (centres undefined),-15.3,"6.51 µM [falling, single point]","1.64 µM [falling, partial curve, poor fit]"
CC(O)CNC(=S)Nc1ccccc1 (centres undefined),9.59,"0.116 µM [falling, full curve, poor fit]",–
CCOC(=O)CN(Cc1ccccc1)C(=O)OC(C)(C)C,9.88,–,–
COc1ccc(C(=O)NC2CCCCC2)cc1S(=O)(=O)N1CCOCC1,3.78,"6.51 µM [falling, single point]",–
CC(=NCCCn1ccnc1)c1c(O)n(Cc2ccccc2)c(=O)[nH]c1=O,–,"2.31 µM [rising, partial curve]","6.51 µM [rising, single point]"
CCOc1cc(/C=N/NC(=O)CN2CCCCC2)ccc1OCc1ccc(Cl)cc1,20.5,"5.8 µM [rising, full curve]",–
O=C(NCCN1CCOCC1)c1ccccc1N1C(=O)[C@@H]2Cc3c([nH]c4ccccc34)C(c3ccc(F)cc3)N2C1=O (some centres undefined),-10.7,"0.13 µM [rising, full curve, poor fit]",–
COc1ccc(NC(=S)N(CCc2c(C)[nH]c3ccc(C)cc23)Cc2cccnc2)cc1,5.84,"0.13 µM [rising, full curve]",–
CCc1nnc(NC(=O)C2CCCN(C(=O)c3ccc(Cl)cc3)C2)s1 (centres undefined),-0.417,"16.4 µM [falling, single point]",–
Cc1onc(-c2ccccc2)c1C(=O)N/N=C/c1c(F)cccc1Cl,-10.6,–,–
CC(C)N1CC(C(=O)Nc2ccc(F)c(Cl)c2)CC1=O (centres undefined),8.5,"3.26 µM [rising, single point]",–
Cc1ccc(NC(=O)CCn2cnc3ccccc3c2=O)c(C)c1,27.1,"0.00517 µM [rising, full curve, poor fit]",–
CC(C)OC(=O)C(C#N)c1nc2ccccc2nc1N1CCN(Cc2ccc3c(c2)OCO3)CC1 (centres undefined),-1.98,–,–
